Results are given in words; binding and its absence hold for the method and conditions named. Binding can be weak; no strength is given.
B1: PA3309, prey in pTRG (bacterial two-hybrid) (protein, UniProt Q9HYT5 1-151)
chain: MYDRILVAVDGSPVSDRALEEAIKLAGLSGGKLRVITIVDSPLRHLPDYAVYYNPEPLREAALKAADDVLAKAREKVEASNVEGATFDRVCQERASEEIAERIELEAQASDADVVVMGTHGRRGMRRLMLGSVAEGLIRVASRPVLLVRDK
B2: PA0937, prey in pTRG (bacterial two-hybrid) (protein, UniProt Q9I521 1-179)
chain: MSMSLRDQLLKAGLVNEKQAKQATKQKQKQQRLEHKNQVDKDDSQRQAAEQAKAEKLARDQELNRQQQEKAEKKAKAAQIKQLIEGTRLPKLESDDYYNFVDAKKVKRIAVNDLIRDKLSRGSLAIVSYDGRYEIVPRDAAVKIQERDPRRVVLLNVQSQEPDEDDPYKDYVVPDDLMW
B3: PA2562, prey in pTRG (bacterial two-hybrid) (protein, UniProt Q9I0S3 1-170)
chain: MFNTRSVLALVVSLSLIGGTPAVLADPGNGKGNPHGNQMDGGKGNKGNKGNQGGHDNHGGPGNKGGGAGQKGNGGGNWDSGPRIDVGGVRVILGDNRGYWNPGPALPPGIQKNLARGKPLPPGIAKKLDGRLLGRLPHYDGYEWMQAGTDLLLVAVATGLIYEVLDNVLD
B4: PA3196, prey in pTRG (bacterial two-hybrid) (protein, UniProt Q9HZ44 1-176)
chain: MKETLNELITLISTGCMGAEEIRRIADEAAQAYADPAGFLAANPDINYDDSFPIPLGEWVVVGSLPDIVLFQADTYAELFARIVASFGKDVAFNIKPKQLLKTEPLVALNRIQVQLSSMYPEKGGYVLVDFSEPLDDELQAVLVYTQDLPRVMALCVEAGIYAAPAYESLRDAEAE
B5: PA1899, prey in pTRG (bacterial two-hybrid) (protein, UniProt Q9I2J9 1-162)
chain: MREYQRLKGFTDNLELRRRNRATVEHYMRMKGAERLQRHSLFVEDGCAGNWTTESGEPLVFRGHESLRRLAEWLERCFPDWEWHNVRIFETEDPNHFWVECDGRGKALVPGYPQGYCENHYIHSFELENGRIKRNREFMNPMQKLRALGIAVPQIKRDGIPT

biological target: PipA, bait in pBT (bacterial two-hybrid) (P. aeruginosa); experiment: two-hybrid; bacterial two-hybrid (BacterioMatch II, lambda repressor-based): bait in pBT, prey in pTRG, co-transformed into the E. coli reporter strain; growth on M9 without histidine with 12.5 ug/ml streptomycin and 5 mM 3-AT

Row | Binder | binding
1 | B1 | binds
2 | B2 | binds
3 | B3 | binds
4 | B4 | no binding
5 | B5 | no binding

— publication PMC13539228
